# Measurements taken from PubChem BioAssay AID2685 (National Center for Advancing Translational Sciences (NCATS), 2010).
# The other results are listed elsewhere or left out. These are further read-outs of the screen, such as a control signal, another cell line or another target. No call is given for them. The list favours compounds with an active or inconclusive main result. Potencies come from curve fits of mixed quality, noted in brackets.
# Assay: qHTS Assay for Lipid Storage Modulators in Drosophila S3 Cells;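 on cell number change: cells counted by Cell Tracker Red CMTPX staining in the red channel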
# Details: BODIPY lipid droplet fluorescence, 18-24 h; for cell number change: measured here: cell count max response, cells fed with added oleic acid
# Procedure, shortened: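 Drosophila S3 cells loaded with oleic acid (400 uM, as added) and compounds at several concentrations; lipid droplets imaged by 488-nm laser-scanning cytometry, 500–530 nm intensity and object ratio to cell channel. Percent activity normalized to 20 uM Triacsin C.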
# [1] = measured here: lipid fluorescence (Fed channel) AC50, cells fed with added oleic acid
# [2] = measured here: cell number channel AC50, cells fed with added oleic acid
SMILES,cell number change [%],AC50 [1],AC50 [2]
COc1ccc(C)cc1S(=O)(=O)n1cnc2ccccc21,24.9,"7.31 µM [rising, partial curve, poor fit]",
CN(CC1COc2ccccc2O1)C(=O)c1ccc(N(C)C)cc1 (stereo not drawn),,"18.4 µM [rising, partial curve]","6.51 µM [rising, single point]"
CN1C(=O)C(C)(C)c2cc(S(=O)(=O)N(C)Cc3ccccc3)ccc21,-18.2,"3.26 µM [falling, full curve]",
CCOC(=O)Cn1c(=O)cc(C)c2ccccc21,44.5,,
CCC1=NN(C(=O)C(=O)Nc2ccc(OC)cc2)C(O)(C(F)(F)F)C1 (stereo not drawn),121,,"0.731 µM [rising, single point]"
CC(Oc1ccc(Br)cc1)C(=O)Nc1cc(S(=O)(=O)N2CCOCC2)ccc1N1CCCC1 (stereo not drawn),,,"2.31 µM [rising, partial curve, poor fit]"
Cc1ccc(S(=O)(=O)N2Cc3ccccc3CC2C(=O)Nn2cnnc2)cc1 (stereo not drawn),20.2,,"0.103 µM [rising, full curve, poor fit]"
CCCc1nnc(NC(=O)CCC(=O)N2CCN(C3c4ccccc4-c4ccccc43)CC2)s1,3.61,,
O=C(Cc1ccccc1)n1nc(-c2ccco2)nc1SCc1ccccc1,-23,"0.184 µM [falling, full curve]","0.13 µM [falling, full curve]"
O=C(NCc1ccc2c(c1)OCO2)c1cc2ccccc2oc1=O,-8.73,"6.51 µM [falling, single point]","6.51 µM [falling, single point]"
Cc1cc(C(=O)NNc2ccc(F)cc2)no1,-52.4,"16.4 µM [falling, single point]","20.6 µM [falling, single point]"
COc1cccc(C(=O)Oc2cc(N)n(S(=O)(=O)c3ccc(C)cc3)n2)c1OC,-4.6,"5.8 µM [falling, full curve, poor fit]",
Cc1nn(C)c(C(=O)Nc2cccc(Nc3ccccc3)c2)c1[N+](=O)[O-],-16,,
CCCn1nnnc1NCc1ccc(OC)cc1OC,7.95,"0.164 µM [rising, full curve, poor fit]",
Cc1ccc(Nc2nnc(SCC(=O)NC3CCCc4ccccc43)s2)cc1 (stereo not drawn),-39.3,"14.6 µM [falling, partial curve]","20.6 µM [falling, single point]"
COc1cc(OC)cc(C(=O)NN2CCOCC2)c1,21.6,"0.116 µM [falling, full curve, poor fit]",
CC1Sc2ccc(C(=O)Nc3ccccc3OC(F)F)cc2NC1=O (stereo not drawn),,"2.06 µM [rising, partial curve, poor fit]",
Cc1nn(-c2ccccc2)c(Cl)c1/C=N\NC(=O)c1cnccn1,3.07,"20.6 µM [rising, single point]",
Cc1cc(C(=O)Nc2ccc(Cl)cc2)on1,-16.7,,
COC(=O)C1=C(C(=O)c2ccccc2)C(c2cccs2)n2nnnc2N1 (stereo not drawn),4.33,,"0.00517 µM [rising, full curve, poor fit]"

# Entries shown so far that contain an aryl thioether with sulfur outside any ring, in the order listed:
SMILES,cell number change [%],AC50 [1],AC50 [2]
O=C(Cc1ccccc1)n1nc(-c2ccco2)nc1SCc1ccccc1,-23,"0.184 µM [falling, full curve]","0.13 µM [falling, full curve]"
Cc1ccc(Nc2nnc(SCC(=O)NC3CCCc4ccccc43)s2)cc1 (stereo not drawn),-39.3,"14.6 µM [falling, partial curve]","20.6 µM [falling, single point]"

# Next part.

SMILES,cell number change [%],AC50 [1],AC50 [2]
CC1(C)Cc2c(c(N3CCOCC3)nc3sc(-c4ccc(C(=O)O)o4)c(N)c23)CO1,15.1,,
Cc1cnc(C(=O)Nc2ccc(C)c(S(=O)(=O)N3CCCCC3)c2)cn1,24.8,"1.64 µM [rising, partial curve]",
C[C@H](NC(=O)[C@H]1N2C(=O)c3ccccc3C2SC1(C)C)C(=O)N1CCN(C)CC1 (stereo partly drawn),-0.763,"2.59 µM [falling, single point]",
CCC1(c2ccccc2)NC(=O)N(CC(=O)NNC(=O)COc2ccc(Cl)cc2C)C1=O (stereo not drawn),-6.83,"0.82 µM [rising, full curve, poor fit]",
O=S(=O)(/N=C(/Nc1cc(N2CCOCC2)ncn1)c1ccccc1)c1ccccc1,,,"2.59 µM [rising, partial curve, poor fit]"
Cc1ccc(NC(=O)COC(=O)c2cccc3c(=O)c(C)c(-c4ccccc4)oc23)cc1,-42.6,"29.1 µM [falling, single point]","18.4 µM [falling, single point]"
CC(N1CCOC1=O)S(=O)(=O)c1ccccc1 (stereo not drawn),-12.5,"2.06 µM [falling, partial curve]",
Cc1onc(-c2c(Cl)cccc2Cl)c1C(=O)N1CCN(c2ccccc2F)CC1,20,"13 µM [rising, partial curve]",
COc1ccc(-c2nc3ccccc3nc2-c2ccccc2)cc1OC,-19.3,"29.1 µM [falling, single point]",
O=C(Cc1ccccc1[N+](=O)[O-])NNC(=O)c1ccncc1,-61.6,,"29.1 µM [falling, single point]"
CC(C)Sc1nc2ccccc2[nH]1,12.8,,
CCC(=O)Nc1nnc(S(=O)(=O)N2c3ccccc3CC2C)s1 (stereo not drawn),-0.599,"16.4 µM [rising, partial curve]",
CCOC(=O)N1CCC(n2c(SCC(=O)Nc3ccccc3OC)nc3ccccc3c2=O)CC1,-24,"0.731 µM [rising, single point]",
COc1ccc(Cn2c(C3CC3)nc3ccc(NC(=O)c4cccnc4)cc3c2=O)cc1,23.7,"6.31 µM [falling, partial curve, poor fit]",
FC(F)(F)c1cccc(NC(=S)NNC(=S)Nc2ccc(Cl)cc2)c1,-48,,"29.1 µM [falling, single point]"
COc1ccc(NC(=S)N(CCN(C)C)C(C)c2ccncc2)cc1Cl (stereo not drawn),3.47,"2.31 µM [rising, full curve, poor fit]",
Cc1cc(C)cc(NC(=O)c2ccc(CNc3c(N4CCCC4)c(=O)c3=O)cc2)c1,19.4,"4.11 µM [rising, single point]",
Cc1ccc(CNc2nc3ccccc3n3cnnc23)cc1,,,"0.731 µM [rising, full curve, poor fit]"
Cc1cc(C(=O)NNC(=O)Nc2ccc(Cl)cc2)no1,-21.9,"3.66 µM [falling, full curve]",
